# The list is a part of this screen's results and no random one: it is rich in T/C values a quarter to a half above the control, in often repeated tests (any T/C) and in doses without a T/C. Other doses and runs of a compound stand elsewhere. T/C gives the treated animals as a percentage of the vehicle group. Some entries give survivors of the animals treated and no T/C: the source files T/C as zero there, which appears to mark a toxic dose or a test without result, not a measured value. Some survivor counts are full or nearly so, which does not show that the dose was tolerated: survival well below the control is almost never listed, so the zero probably covers shortened survival too. Counts of survivors are from the toxicity check (mostly the fifth day) where no day follows; animals may have died later. Schedule codes are those of the source, taken here to give the interval after Q, in days (D) or hours (H), and the number of doses after X. Some entries hold several experiments; the values are given in rising order. Counts like (3×) stand for listed records that agree. For survival time, this PubChem deposit counts one and a half times the control or more as active, and values a quarter to a half above the control carry no call in these data; other NCI protocols may use other cut-offs. Some T/C values are followed by the survivors on the day toxicity was checked, most often the fifth; where none is given, no animal had died by that day.
# Test system: P388 leukemia ip, CD2F1 mice, survival T/C
# Assay: NCI In Vivo Anticancer Drug Screen. Data for tumor model P388 Leukemia (intraperitoneal) in CD2F1 (CDF1) mice
# Details: T/C endpoint: median survival time, higher T/C = longer survival
# [1] = dose: 200.0 mg/kg/injection, schedule: Q01DX009 (ip), vehicle: saline with Tween-80
# [2] = dose: 200.0 mg/kg/injection, schedule: Q01DX005 (ip), vehicle: Klucel (hydroxypropylcellulose) (HPC)
# [3] = dose: 50.0 mg/kg/injection, schedule: Q01DX009 (ip), vehicle: saline
# [4] = dose: 100.0 mg/kg/injection, schedule: Q01DX009 (ip), vehicle: saline
# [5] = dose: 50.0 mg/kg/injection, schedule: Q01DX005 (ip), vehicle: saline
# [6] = dose: 240.0 mg/kg/injection, schedule: Q01DX005 (ip), vehicle: saline with Tween-80
# [7] = dose: 100.0 mg/kg/injection, schedule: Q04DX003 (ip), vehicle: saline with Tween-80
# [8] = dose: 120.0 mg/kg/injection, schedule: Q01DX005 (ip), vehicle: saline with Tween-80
# [9] = dose: 25.0 mg/kg/injection, schedule: Q01DX009 (ip), vehicle: water
smiles,measurement,setting,value
O=C1C2C3CCC(C2C(=O)N1CO)C1C2C(=O)N(CO)C(=O)C2C31 (stereo not drawn),T/C,"dose: 50.0 mg/kg/injection, schedule: Q01DX009 (ip), vehicle: saline with Tween-80",145 % of control
same,survivor count,[1],0 of 5 and 5 of 6
O=C(NC1CCCCC1)OCC1OC(n2cnc3c(=O)[nH]cnc32)C(OC(=O)NC2CCCCC2)C1OC(=O)NC1CCCCC1 (stereo not drawn),survivor count,"dose: 50.0 mg/kg/injection, schedule: Q01DX005 (ip), vehicle: saline with Tween-80",5 of 5
same,survivor count,"dose: 100.0 mg/kg/injection, schedule: Q01DX005 (ip), vehicle: saline with Tween-80",4 of 5
same,survivor count,"dose: 200.0 mg/kg/injection, schedule: Q01DX005 (ip), vehicle: saline with Tween-80",5 of 5
C=CCNC(=S)Nc1ncn[nH]1,survivor count,[2],0 of 6
C/[N+]([O-])=N\Nc1ccccc1SCCSc1ccccc1N/N=[N+](\C)[O-],survivor count,"dose: 240.0 mg/kg/injection, schedule: Q01DX005 (ip), vehicle: Klucel (hydroxypropylcellulose) (HPC)",6 of 6
Cc1cc2[nH]c(Cl)c(/C=N/Nc3ccccc3[N+](=O)[O-])c2cc1O,survivor count,"dose: 100.0 mg/kg/injection, schedule: Q01DX001 (ip), vehicle: Klucel (hydroxypropylcellulose) (HPC)",6 of 6
same,survivor count,"dose: 400.0 mg/kg/injection, schedule: Q01DX001 (ip), vehicle: Klucel (hydroxypropylcellulose) (HPC)",5 of 6
CC1(C)COCN1COC1CCCCC1,T/C,[3],132 % of control
same,T/C,[4],141 % of control
same,T/C,"dose: 150.0 mg/kg/injection, schedule: Q01DX009 (ip), vehicle: saline",147 % of control
COC(=O)[CH2][Sn]([CH3])([CH3])[CH2]C(=O)OC,T/C,"dose: 6.25 mg/kg/injection, schedule: Q01DX005 (ip), vehicle: saline",131 % of control
same,T/C,"dose: 12.5 mg/kg/injection, schedule: Q01DX005 (ip), vehicle: saline",129 % of control
same,T/C,"dose: 25.0 mg/kg/injection, schedule: Q01DX005 (ip), vehicle: saline",130 % of control
same,T/C,[5],138 % of control [5 of 6 alive]
same,survivor count,[5],2 of 6
same,survivor count,"dose: 100.0 mg/kg/injection, schedule: Q01DX005 (ip), vehicle: saline",0 of 6
same,survivor count,"dose: 200.0 mg/kg/injection, schedule: Q01DX005 (ip), vehicle: saline",0 of 6
CC(C)(C)c1cc(C(=O)[O-])c([OH2+])c(C(C)(C)C)c1.CC(C)(C)c1cc(C(=O)[O-])c([OH2+])c(C(C)(C)C)c1.[Mn+2],survivor count,[6],0 of 6 (2×)
COc1cc(C=Nc2cccc(C(=O)O)c2)ccc1N(CCCl)CCCl,T/C,"dose: 25.0 mg/kg/injection, schedule: Q04DX003 (ip), vehicle: saline with Tween-80",140 % of control [5 of 6 alive]
same,survivor count,[3],1 of 6
same,survivor count,[4],2 of 6
same,survivor count,[7],6 of 6
same,survivor count,"dose: 150.0 mg/kg/injection, schedule: Q04DX003 (ip), vehicle: saline with Tween-80",2 of 6
Cc1c(O)c2c(c(O)c1Cc1cccc(C#N)c1)C(=O)c1ccccc1C2=O,survivor count,"dose: 12.5 mg/kg/injection, schedule: Q01DX009 (ip), vehicle: other",6 of 6
same,survivor count,"dose: 50.0 mg/kg/injection, schedule: Q01DX009 (ip), vehicle: other",6 of 6
same,survivor count,"dose: 100.0 mg/kg/injection, schedule: Q01DX009 (ip), vehicle: other",6 of 6
same,survivor count,"dose: 200.0 mg/kg/injection, schedule: Q01DX009 (ip), vehicle: other",6 of 6
COc1ccc(N=N/N=c2\sc3cc(Cl)ccc3n2C)cc1,T/C,"dose: 60.0 mg/kg/injection, schedule: Q01DX005 (ip), vehicle: saline with Tween-80",131 % of control
same,T/C,[8],141 % of control [5 of 6 alive]
COc1ccc(C2CC3CCC(C2O)N3C)cc1 (stereo not drawn),survivor count,[2],0 of 6
CN(C)CCOc1cccc2c1CCC2,survivor count,[6],0 of 6
CCCCN=C(N)N/N=C(\C)c1ccc2c(c1)Cc1ccccc1-2,survivor count,"dose: 50.0 mg/kg/injection, schedule: Q04DX002 (ip), vehicle: saline with Tween-80",3 of 6
same,survivor count,"dose: 100.0 mg/kg/injection, schedule: Q04DX002 (ip), vehicle: saline with Tween-80",1 of 6
COc1cccc2c1C(=O)c1c(O)c3c(c(O)c1C2=O)C[C@@](O)(C(C)O)C[C@@H]3OC1CC(N(C)C)C(O)C(C)O1 (stereo partly drawn),T/C,"dose: 0.2 mg/kg/injection, schedule: Q01DX009 (ip), vehicle: water",136 % of control
same,T/C,"dose: 0.78 mg/kg/injection, schedule: Q01DX009 (ip), vehicle: water",131 % of control
same,T/C,"dose: 4.7 mg/kg/injection, schedule: Q04DX003 (ip), vehicle: water",129 % of control
same,survivor count,"dose: 12.5 mg/kg/injection, schedule: Q01DX009 (ip), vehicle: water",3 of 3 and 6 of 6
same,T/C,"dose: 18.8 mg/kg/injection, schedule: Q04DX003 (ip), vehicle: water",138 % of control
same,survivor count,[9],3 of 3
same,T/C,"dose: 37.5 mg/kg/injection, schedule: Q04DX003 (ip), vehicle: water",138 % of control
CS(=O)(=O)C(=Cc1ccccc1Cl)S(C)(=O)=O,survivor count,"dose: 400.0 mg/kg/injection, schedule: Q04DX003 (ip), vehicle: Klucel (hydroxypropylcellulose) (HPC)",0 of 6
Cc1ccnc(NS(=O)(=O)c2ccc(N=CC3C(=O)N(c4ccccc4)N(c4ccccc4)C3=O)cc2)n1,survivor count,"dose: 100.0 mg/kg/injection, schedule: Q01DX009 (ip), vehicle: Klucel (hydroxypropylcellulose) (HPC)",6 of 6
O=C(N=Nc1c(Cl)c(O)c2ccccc2c1O)C(=O)Nc1ccc(Cl)c([N+](=O)[O-])c1,survivor count,[1],2 of 6
O=NNc1ncccc1OCc1ccccc1,T/C,"dose: 3.13 mg/kg/injection, schedule: Q01DX009 (ip), vehicle: water",125 % of control
same,T/C,"dose: 6.25 mg/kg/injection, schedule: Q01DX009 (ip), vehicle: water",125 and 136 % of control
same,survivor count,[9],6 of 6
same,survivor count,"dose: 50.0 mg/kg/injection, schedule: Q01DX009 (ip), vehicle: water",6 of 6
ClC1CC[N-]CC1.ClC1CC[N-]CC1.[Cl][Pt+2]([Cl])([Cl])[Cl],T/C,"dose: 3.12 mg/kg/injection, schedule: Q01DX009 (ip), vehicle: Klucel (hydroxypropylcellulose) (HPC)",140 % of control
same,T/C,"dose: 6.25 mg/kg/injection, schedule: Q01DX009 (ip), vehicle: saline",136 % of control [5 of 6 alive]
COc1cc2cc(c1Cl)N1CC(O)C(C)(O)C(=O)NC(C)C(=O)OC(CC1=O)C1(C)OC1C(C)C1CC(O)(NC(=O)O1)C(OC)/C=C\C=C(\C)C2OC (stereo not drawn),survivor count,"dose: 0.12 mg/kg/injection, schedule: Q01DX009 (ip), vehicle: none",0 of 4
same,survivor count,"dose: 0.25 mg/kg/injection, schedule: Q01DX009 (ip), vehicle: none",0 of 4
same,survivor count,"dose: 0.5 mg/kg/injection, schedule: Q01DX009 (ip), vehicle: none",0 of 4
same,survivor count,"dose: 1.0 mg/kg/injection, schedule: Q01DX009 (ip), vehicle: none",0 of 4
same,T/C,"dose: 2.0 micrograms/kg/injection, schedule: Q01DX009 (ip), vehicle: distilled water + alcohol",144 % of control
same,T/C,"dose: 4.0 micrograms/kg/injection, schedule: Q01DX009 (ip), vehicle: distilled water + alcohol",137 % of control
same,T/C,"dose: 8.0 micrograms/kg/injection, schedule: Q01DX009 (ip), vehicle: distilled water + alcohol",146 % of control
same,T/C,"dose: 16.0 micrograms/kg/injection, schedule: Q01DX009 (ip), vehicle: distilled water + alcohol",137 % of control
same,survivor count,"dose: 31.0 micrograms/kg/injection, schedule: Q01DX009 (ip), vehicle: none",4 of 4
same,survivor count,"dose: 32.0 micrograms/kg/injection, schedule: Q01DX009 (ip), vehicle: distilled water + alcohol",6 of 6
same,survivor count,"dose: 62.0 micrograms/kg/injection, schedule: Q01DX009 (ip), vehicle: none",1 of 4
O=[N+]([O-])c1cccc(SNc2cccc(Cl)c2)c1,survivor count,[7],6 of 6
same,survivor count,"dose: 400.0 mg/kg/injection, schedule: Q04DX003 (ip), vehicle: saline with Tween-80",5 of 6
CC(=O)NCCCC(=O)O,survivor count,[3],5 of 6
same,survivor count,[4],2 of 6
COc1ccc(C(c2c(O)c3ccccc3oc2=O)c2c(O)c3ccccc3oc2=O)cc1,survivor count,[8],5 of 6
same,survivor count,[6],3 of 5

# Source: PubChem BioAssay AID330 (DTP/NCI, 2004)
